# Test results from article PMC12670160, “A drug-repurposing screen of FDA- and EMA-approved drugs identifies two NF-κB inhibitors active against eumycetoma” (Journal of Antimicrobial Chemotherapy, 2025).
# Where a name gives a salt, the structure may show the parent alone. The whole screen tested about 5,300 compounds, of which about 130 (2.5%) showed an effect of 50% or more. The list shows a part of the results.
# Test system: M. mycetomatis strain mm55
# Conditions: primary screen, metabolic activity vs growth control; 96 h, 2 µM; inhibitor
row,Structure (SMILES),% viability
1,"CS(=O)(=O)O.Cc1ncc(NC(=O)c2ccc(CN3CCN(C)CC3)c(C(F)(F)F)c2)cc1Nc1nccc(-c2cccnc2)n1 [ONC0000733, flumatinib mesylate]",70.92%
2,"NS(=O)(=O)NCCNc1nonc1C(=NO)Nc1ccc(F)c(Br)c1 [ONC0005250, epacadostat incb024360]",130.3%
3,"N[C@@H](CCNCc1ccc(Cl)cc1)C(=O)N1CCCCC1 [ONC0001425, uamc00039]",60.53%
4,"CC1CCC(O)C/C1=C\C=C1/CCCC2(C)C1CCC2C(C)/C=C/C(C)C(C)C (centres unmarked) [ONC0003794, dihydrotachysterol]",64.86%
5,"C[C@@H](Oc1cc(-c2cnn(C3CCNCC3)c2)cnc1N)c1c(Cl)ccc(F)c1Cl [ONC0004739, crizotinib pf02341066]",108%
6,"CC(Cc1ccc(O)c(O)c1)C(C)Cc1ccc(O)c(O)c1 (centres unmarked) [ONC0003497, nordihydroguaiaretic acid]",60.17%
7,"C[C@@H](C(=O)O)c1ccc(-c2ccccc2)c(F)c1 [ONC0001617, flurizan]",81.17%
8,"Cc1cc(OI)c(C(C)C)cc1-c1cc(C(C)C)c(OI)cc1C [ONC0002733, thymol iodide]",87.5%
9,"CC(=O)OCC(=O)[C@@]12OC3(CCCC3)O[C@@H]1C[C@H]1[C@@H]3CCC4=CC(=O)C=C[C@]4(C)[C@@]3(F)[C@@H](O)C[C@@]12C [ONC0002738, amcinonide]",104%
10,"Cc1nc(N(C)C(=O)Cc2ccc(-c3ccccn3)cc2)sc1S(N)(=O)=O [ONC0005353, pritelivir]",121.5%
11,"C/C(=N\NC(=N)N)c1cc(NC(=O)CCCCCCCCC(=O)Nc2cc(/C(C)=N/NC(=N)N)cc(/C(C)=N/NC(=N)N)c2)cc(/C(C)=N/NC(=N)N)c1 [ONC0003851, semapimod]",78.92%
12,"C/C(O)=C(\C#N)C(=O)Nc1ccc(C(F)(F)F)cc1 [ONC0000878, teriflunomide]",64.9%
13,"Cc1oc(=O)oc1CN1CCN(c2cc3c(cc2F)c(=O)c(C(=O)O)c2n3C(C)S2)CC1 (centres unmarked) [ONC0004205, prulifloxacin]",94.79%
14,"COc1nc(C)cnc1NS(=O)(=O)c1cccnc1-c1ccc(-c2nnco2)cc1 [ONC0004889, zibotentan zd4054]",118.1%
15,"O=C(CC1CC(c2ccc(F)cc2F)=NO1)N1CCOCC1 (centres unmarked) [ONC0000237, cpsi1306]",89.07%
16,"CNC(=O)Oc1cccc2ccccc12 [ONC0004309, carbaril]",58.5%
17,"C/C(=C\CNc1ncnc2[nH]cnc12)CO [ONC0003835, zeatin]",65.76%
18,"O=C(NCc1ccc2c(c1)OCO2)c1c(Cl)cccc1Cl [ONC0001694, alda1]",71.27%
19,"Cn1cc(C2=C(c3cn(CCCSC(=N)N)c4ccccc34)C(=O)NC2=O)c2ccccc21 [ONC0002507, bisindolylmaleimideix]",68.21%
20,"C[C@@H]1O[C@@H](O[C@H]2[C@H](Oc3cc(O)c4c(c3)O[C@H](c3ccc(O)cc3)CC4=O)O[C@H](CO)[C@@H](O)[C@@H]2O)[C@H](O)[C@H](O)[C@H]1O [ONC0004654, naringin naringoside]",64.69%

row,Structure (SMILES),% viability
1,"N[C@@H](CC(=O)N1CCn2c(nnc2C(F)(F)F)C1)Cc1cc(F)c(F)cc1F [ONC0004045, sitagliptin phosphate]",93.31%
2,"CCN1CCCC1=O [ONC0002753, 1ethyl2pyrrolidone]",114.4%
3,"COc1ccc(CC(=O)NC(N/C(=N/C#N)Nc2cccc3ncccc23)C(C)(C)C)cc1OC (centres unmarked) [ONC0001613, a740003]",77.73%
4,"NS(=O)(=O)Oc1ccc2c3c(c(=O)oc2c1)CCCCC3 [ONC0005449, irosustat]",97.6%
5,"CCN(CC)CC1CCCCN1CC(=O)N1c2ccccc2C(=O)Nc2cccnc21 (centres unmarked) [ONC0001676, otenzepad]",55.9%
6,"CCN1CCN(C(=O)Cc2ccc(Nc3ncc(F)c(Nc4ccc(C(=O)Nc5ccccc5Cl)cc4)n3)cc2)CC1 [ONC0002566, auroraainhibitori]",68.8%
7,"N=C(Nc1ccccc1)Nc1ccccc1 [ONC0003576, diphenylguanidine]",111.9%
8,"CCC(C/C=C/c1ccccc1)(c1ccccc1)N(C)CC1CC1 (centres unmarked) [ONC0003075, igmesine]",61.21%
9,"NC(=O)Nc1sc(-c2ccc(F)cc2)cc1C(N)=O [ONC0001263, tpca1]",73.02%
10,"CC#CCC(C)[C@H](O)/C=C/[C@@H]1[C@H]2C/C(=C/CCCC(=O)O)C[C@H]2C[C@H]1O (some centres unmarked) [ONC0001765, iloprost]",85.71%
11,"CC1(C)C(=O)N(CCN2CCC(C(=O)c3ccc(F)cc3)CC2)c2ccccc21 [ONC0000898, ly310762]",86.5%
12,"CCCN(CCC)CCc1ccc(OC)c(OCCc2ccccc2)c1 [ONC0000866, ne100]",62.29%
13,"CC(C)(C)OC(=O)N[C@H]1CCCCC/C=C\[C@@H]2C[C@@]2(C(=O)NS(=O)(=O)C2CC2)NC(=O)[C@@H]2C[C@@H](OC(=O)N3Cc4cccc(F)c4C3)CN2C1=O [ONC0004588, danoprevir itmn191]",78.54%
14,"O=C(Nc1ccccc1)OCC(CN1CCCCC1)OC(=O)Nc1ccccc1 (centres unmarked) [ONC0004024, diperodon hydrochloride]",82.88%
15,"COc1cc2c(cc1OC)-c1c(C)c3ccc(OC)c(OC)c3c[n+]1CC2 [ONC0000781, dehydrocorydaline chloride]",81.79%
16,"CN1C2CCC1CC(OC(c1ccccc1)c1ccc(Cl)cc1)C2 (centres unmarked) [ONC0001885, 3cpmt]",93.95%
17,"C[C@H](CCC(=O)O)[C@H]1CC[C@H]2[C@@H]3C[C@H](O)[C@@H]4C[C@H](O)CC[C@]4(C)[C@H]3CC[C@]12C [ONC0004931, hyodeoxycholic acid hdca]",102%
18,"CCn1cnc(C(=O)NC)c1C(=O)NC [ONC0001110, etimizol]",66.67%
19,"O=C1NN(C(=O)Nc2ccc(Br)cc2)[C@@H](c2ccccc2)[C@@H]1c1ccccc1 [ONC0002551, ly288513]",75.36%
20,"CO/N=C(\C(=O)N[C@@H]1C(=O)N2C(C(=O)O)=C(CSC(=O)c3ccco3)CS[C@H]12)c1csc(N)n1 [ONC0004296, ceftiofur hydrochloride]",90.25%

# Gathered by group, those above with a tert-butyl group.
row,Structure (SMILES),% viability
3,"COc1ccc(CC(=O)NC(N/C(=N/C#N)Nc2cccc3ncccc23)C(C)(C)C)cc1OC (centres unmarked) [ONC0001613, a740003]",77.73%
13,"CC(C)(C)OC(=O)N[C@H]1CCCCC/C=C\[C@@H]2C[C@@]2(C(=O)NS(=O)(=O)C2CC2)NC(=O)[C@@H]2C[C@@H](OC(=O)N3Cc4cccc(F)c4C3)CN2C1=O [ONC0004588, danoprevir itmn191]",78.54%

# (list continues)

row,Structure (SMILES),% viability
1,"N[C@@H]1CCN(O)C1=O [ONC0004324, ha966r]",106.3%
2,"CN(C)C(=O)N[C@H]1CC[C@H](CCN2CCN(c3cccc(Cl)c3Cl)CC2)CC1 [ONC0001226, cariprazine]",115%
3,"CC(=O)Nc1ccc(OCC(O)CNC(C)C)cc1 (centres unmarked) [ONC0002176, practolol]",73.91%
4,"COc1ccnc2[nH]cc(C(=O)C(=O)N3CCN(C(=O)c4ccccc4)C[C@H]3C)c12 [ONC0005222, bms806 bms 378806]",134.6%
5,"CCCC(=O)Nc1ccc(OCC(O)CNC(C)C)c(C(C)=O)c1 (centres unmarked) [ONC0003369, acebutolol hydrochloride]",44.26%
6,"C[C@@H]1O[C@@H](OC[C@H]2O[C@@H](Oc3c(-c4ccc(O)c(O)c4)oc4cc(O)cc(O)c4c3=O)[C@H](O)[C@@H](O)[C@@H]2O)[C@H](O)[C@H](O)[C@H]1O [ONC0003327, rutin]",87%
7,"CC(O)(CS(=O)(=O)c1ccc(F)cc1)C(=O)Nc1ccc(C#N)c(C(F)(F)F)c1 (centres unmarked) [ONC0004751, bicalutamide casodex]",86.52%
8,"CCN(CC)CCNC(=O)c1ccc(I)cc1 [ONC0002582, ibza]",67.62%
9,"CCC(=O)O[C@@H](OP(=O)(CCCCc1ccccc1)CC(=O)N1C[C@H](C2CCCCC2)C[C@H]1C(=O)O)C(C)C (some centres unmarked) [ONC0005007, fosinopril sodium monopril]",152.1%
10,"C=CC(C)(O)CCC=C(C)C (centres unmarked) [ONC0002978, linalool]",159.2%
11,"CC(=O)O[C@]1(C(C)=O)CC[C@H]2[C@@H]3C=C(C)C4=CC(=O)CC[C@]4(C)[C@H]3CC[C@@]21C [ONC0000478, megestrol acetate]",64.15%
12,"CN(C)C(=O)c1cc2cnc(Nc3ccc(N4CCNCC4)cn3)nc2n1C1CCCC1 [ONC0005183, ribociclib lee011]",120.1%
13,"NC[C@H]1O[C@H](O[C@H]2[C@H](O)[C@@H](O[C@H]3O[C@H](CO)[C@@H](O)[C@H](N)[C@H]3O)[C@H](N)C[C@@H]2N)[C@H](N)[C@@H](O)[C@@H]1O [ONC0003920, bekanamycin sulfate]",71.98%
14,"CCNCCCNCCCCNCCCNCC [ONC0001353, 112besm]",108.7%
15,"Cc1cccc(C)c1NC(=O)CN1CCN(CCCC(c2ccc(F)cc2)c2ccc(F)cc2)CC1 [ONC0002360, lidoflazine]",112.8%
16,"Oc1cc(O)cc(/C=C/c2ccc(O)c(O)c2)c1 [ONC0004475, piceatannol]",94.27%
17,"O=C(NC1CC1)c1cc(-c2cccs2)on1 [ONC0002467, isx9]",66.36%
18,"CN1C(=O)N(c2cc(Cl)cc(Cl)c2)C(=O)[C@]12CN(Cc1cc(C(=O)O)cs1)C[C@H]2c1ccc(C#N)cc1 [ONC0001973, bms587101]",86%
19,"CCCCOc1ccc(-c2cncc(C(=O)NCc3cccnc3N3CCOCC3)c2)cc1Cl [ONC0002493, a887826]",81.72%
